Drug screen on melanoma cell lines: apoptosis marker

Source: doi:10.1371/journal.pone.0140310, primary screening data, rounded.

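The test systems are human melanoma cell lines, treated with a pair of drugs for 72 h and then stained and imaged. The read-out is the fraction of cleaved-PARP-positive nuclei, in % of that fraction in the DMSO control; 200 means twice the control level of this apoptosis marker. Every drug was used at one fixed concentration, the higher of two screened. The file gives one value for each pair and line, without errors, so small differences may be noise. Basal and induced levels differ widely between cell lines.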 Only some of the drugs and lines screened are listed, without regard to their results. A dash means that no value is listed here.

Compounds and concentrations:
sorafenib: CNC(=O)c1cc(Oc2ccc(NC(=O)Nc3ccc(Cl)c(C(F)(F)F)c3)cc2)ccn1 at 2000 nM
CX-4945: O=C(O)c1ccc2c(c1)nc(Nc1cccc(Cl)c1)c1ccncc12 at 2000 nM
A-769662: N#Cc1c(O)c2c(-c3ccc(-c4ccccc4O)cc3)csc2[nH]c1=O at 10000 nM
GW2580: COc1ccc(COc2ccc(Cc3cnc(N)nc3N)cc2OC)cc1 at 5000 nM
FH535: Cc1cc([N+](=O)[O-])ccc1NS(=O)(=O)c1cc(Cl)ccc1Cl at 5000 nM
tipifarnib: Cn1cncc1[C@@](N)(c1ccc(Cl)cc1)c1ccc2c(c1)c(-c1cccc(Cl)c1)cc(=O)n2C at 50 nM
gemcitabine: Nc1ccn([C@@H]2O[C@H](CO)[C@@H](O)C2(F)F)c(=O)n1 at 2 nM
bexarotene: C=C(c1ccc(C(=O)O)cc1)c1cc2c(cc1C)C(C)(C)CCC2(C)C at 10000 nM
PF-562271: CN(c1ncccc1CNc1nc(Nc2ccc3c(c2)CC(=O)N3)ncc1C(F)(F)F)S(C)(=O)=O at 400 nM

| Pair | COLO 829 | RPMI-7951 | MZ2-MEL | WM3619 | A2058 | WM115 | 501mel | MeWo | COLO 792 | COLO 800 | UACC-257 | A101D |
|---|---|---|---|---|---|---|---|---|---|---|---|---|
| gemcitabine and A-769662 | 338 | 120 | 83.2 | 170 | 187 | 113 | 131 | 142 | 153 | 171 | 25.3 | 113 |
| A-769662 and CX-4945 | 143 | 99.9 | 131 | 104 | 155 | 116 | 53.0 | 156 | 113 | 105 | 41.0 | 182 |
| bexarotene and GW2580 | 107 | 43.8 | 88.2 | 90.1 | 75.5 | 111 | 41.0 | 75.0 | 132 | 107 | 71.6 | 42.7 |
| FH535 and bexarotene | 179 | 110 | 399 | 118 | 85.0 | 80.7 | 89.4 | 84.9 | 240 | 75.8 | 109 | 89.5 |
| tipifarnib and A-769662 | 121 | 124 | 63.9 | 134 | 178 | 128 | 114 | 67.7 | 114 | 415 | 37.7 | 190 |
| A-769662 and PF-562271 | 58.6 | 65.1 | 46.1 | 104 | 347 | 50.4 | 101 | 91.8 | 103 | 53.2 | 45.9 | 85.5 |
| FH535 and CX-4945 | 131 | 65.1 | - | 111 | 219 | 117 | - | 135 | 64.3 | 78.2 | 239 | 336 |
| A-769662 and bexarotene | 50.1 | 89.6 | 133 | 210 | 89.8 | 77.1 | 461 | 143 | 184 | 92.9 | 86.2 | 96.8 |
| FH535 and gemcitabine | 158 | 311 | 135 | 277 | 252 | 120 | 44.0 | 300 | 64.3 | 300 | 172 | 119 |
| sorafenib and CX-4945 | 206 | 302 | 130 | 125 | 140 | 237 | - | 64.1 | 121 | 120 | 139 | 84.5 |
| tipifarnib and sorafenib | 136 | 122 | 135 | 95.8 | 77.1 | 64.8 | - | 144 | 22.9 | 183 | 220 | 61.9 |
| GW2580 and gemcitabine | 243 | 143 | 111 | 187 | 108 | 45.9 | 57.2 | 136 | 77.6 | 362 | 29.3 | 57.9 |
| sorafenib and A-769662 | 117 | 119 | 82.7 | 91.6 | 63.2 | 70.3 | 44.6 | 72.1 | 102 | 109 | 66.6 | 154 |
| PF-562271 and GW2580 | 105 | 134 | 233 | 117 | 196 | 43.4 | 84.4 | 90.3 | 81.3 | 47.6 | 164 | 214 |
| GW2580 and sorafenib | 89.3 | 106 | 288 | 112 | 122 | 206 | 40.5 | 232 | 72.1 | 33.7 | 76.2 | 121 |
| FH535 and A-769662 | 97.9 | 63.8 | 29.5 | 122 | 71.3 | 60.4 | 177 | 109 | 75.6 | 150 | 70.7 | 57.6 |
| bexarotene and gemcitabine | 372 | 192 | 223 | 237 | 208 | 600 | - | 247 | 178 | 148 | 146 | 132 |
| sorafenib and PF-562271 | 173 | 111 | 120 | 99.0 | 76.7 | 45.5 | - | 83.1 | 65.5 | 54.9 | 49.0 | 82.0 |
| PF-562271 and tipifarnib | 258 | 137 | 219 | 120 | 107 | 150 | - | 75.2 | 156 | 159 | 158 | 170 |
| FH535 and GW2580 | 218 | 87.3 | 4740 | 124 | 118 | 92.5 | 99.2 | 86.3 | 78.1 | 287 | 366 | 440 |
| sorafenib and bexarotene | 195 | 167 | 220 | 121 | 104 | 55.8 | - | 127 | 124 | 103 | 138 | 165 |
| tipifarnib and GW2580 | 128 | 130 | 57.3 | 114 | 123 | 293 | 130 | 244 | 93.7 | 64.0 | 83.9 | 96.2 |
| FH535 and sorafenib | 280 | 342 | 522 | 176 | 83.1 | 57.1 | 49.3 | 119 | 133 | 86.5 | 666 | 279 |
| sorafenib and gemcitabine | 296 | 485 | - | 182 | 147 | 119 | - | 217 | 233 | 213 | 78.5 | 86.2 |
| bexarotene and PF-562271 | 297 | 79.9 | 262 | 96.1 | 163 | 118 | - | 112 | 110 | 159 | 95.5 | 82.1 |
| CX-4945 and bexarotene | 231 | 71.3 | 413 | 137 | 197 | 372 | - | 72.3 | 73.5 | 58.2 | 48.1 | 117 |
| PF-562271 and gemcitabine | 533 | 320 | 218 | 169 | 273 | 204 | - | 384 | 239 | 426 | 169 | 94.1 |
| PF-562271 and FH535 | 114 | 69.3 | 202 | 153 | 104 | 292 | 308 | 49.4 | 201 | 206 | 322 | 365 |
| gemcitabine and tipifarnib | 588 | 303 | 28.8 | 281 | 64.8 | 196 | - | 273 | 146 | 228 | 251 | 63.3 |
| CX-4945 and GW2580 | 937 | 120 | 251 | 182 | 150 | 54.7 | 164 | 109 | 134 | 85.5 | 60.5 | 182 |
| FH535 and tipifarnib | 135 | 164 | 38.3 | 124 | 146 | 162 | 76.3 | 28.1 | 68.0 | 68.1 | 56.8 | 67.7 |
| gemcitabine and CX-4945 | 1090 | 255 | 242 | 267 | 221 | 283 | - | 589 | 244 | 149 | 71.9 | 112 |
| bexarotene and tipifarnib | 99.8 | 133 | 258 | 115 | 126 | 359 | - | 92.0 | 112 | 79.2 | 36.9 | 107 |
| PF-562271 and CX-4945 | 359 | 180 | 366 | 146 | 286 | 353 | - | 139 | 131 | 114 | 53.2 | 40.7 |
| A-769662 and GW2580 | 99.9 | 41.3 | 14.8 | 99.0 | 85.8 | 153 | 55.1 | 50.2 | 53.2 | 69.9 | 45.8 | 62.6 |

Once more, the final 2:

Pair,COLO 829,RPMI-7951,MZ2-MEL,WM3619,A2058,WM115,501mel,MeWo,COLO 792,COLO 800,UACC-257,A101D
PF-562271 and CX-4945,359,180,366,146,286,353,-,139,131,114,53.2,40.7
A-769662 and GW2580,99.9,41.3,14.8,99.0,85.8,153,55.1,50.2,53.2,69.9,45.8,62.6